From publication PMC3407074
Results are given in words; binding and its absence hold for the method and conditions named. In cells and extracts the contact can be indirect. A yes stands for co-enrichment or nearness to the bait. Other partners may have been found. No binding means not detected with the bait.

The chains behind the UniProt entries cited, without tags or fusion partners. Residues count along the entry.
UniProt Q8I1Y0, residues 21-378: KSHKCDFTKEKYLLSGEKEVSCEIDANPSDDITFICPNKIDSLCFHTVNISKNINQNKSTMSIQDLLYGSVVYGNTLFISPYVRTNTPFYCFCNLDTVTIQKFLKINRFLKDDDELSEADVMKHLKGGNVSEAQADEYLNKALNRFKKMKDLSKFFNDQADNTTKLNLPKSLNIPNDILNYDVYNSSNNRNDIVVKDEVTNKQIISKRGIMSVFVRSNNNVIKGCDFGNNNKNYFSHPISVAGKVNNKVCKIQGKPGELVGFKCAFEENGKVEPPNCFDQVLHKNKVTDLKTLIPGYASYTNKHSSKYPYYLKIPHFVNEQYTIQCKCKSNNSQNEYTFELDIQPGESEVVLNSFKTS

Molecular target: T1, native P12 (Plasmodium falciparum (endogenous in 3D7 and CS2 parasites)) (UniProt C6KSX0)
T1 sequence: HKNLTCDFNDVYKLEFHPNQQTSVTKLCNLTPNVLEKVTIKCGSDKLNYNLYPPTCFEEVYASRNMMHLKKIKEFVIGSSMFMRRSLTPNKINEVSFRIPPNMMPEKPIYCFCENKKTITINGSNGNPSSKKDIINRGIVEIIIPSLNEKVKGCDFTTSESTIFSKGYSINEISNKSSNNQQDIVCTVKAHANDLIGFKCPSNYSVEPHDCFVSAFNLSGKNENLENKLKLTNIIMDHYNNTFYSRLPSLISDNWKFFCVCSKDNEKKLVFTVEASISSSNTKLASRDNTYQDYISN
Assay: affinity purification with mass spectrometry; 3D7 schizont lysate in 1% Triton X-100 in PBS, rabbit anti-P12 IgG on Protein G agarose; eluted in turn with 0.1 M glycine, 0.1 M glycine with 1 M NaCl, and 2% SDS; Coomassie bands identified by LC-MS/MS

Substance	binding
native P41 (from UniProt Q8I1Y0 21-378)	binds
ER localised HSP70 BIP	no binding
